# Test results taken from the supplement of paper PMC10032668.
# Sequences of proteins named here, by UniProt entry; tags and fusion partners are left off.
# DYNLL1, P63167, UniProt P63167, whole entry: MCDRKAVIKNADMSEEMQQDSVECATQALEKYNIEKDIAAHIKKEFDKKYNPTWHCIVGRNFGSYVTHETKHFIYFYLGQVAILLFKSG
# MORF4L2, Q15014, UniProt Q15014, whole entry: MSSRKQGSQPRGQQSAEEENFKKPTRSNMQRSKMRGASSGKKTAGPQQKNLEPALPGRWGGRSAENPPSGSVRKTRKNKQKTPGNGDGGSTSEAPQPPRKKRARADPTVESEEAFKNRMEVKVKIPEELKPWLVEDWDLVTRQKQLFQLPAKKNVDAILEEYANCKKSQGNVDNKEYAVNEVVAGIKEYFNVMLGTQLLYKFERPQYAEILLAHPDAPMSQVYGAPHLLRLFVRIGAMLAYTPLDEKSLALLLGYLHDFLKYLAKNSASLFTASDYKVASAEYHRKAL
# MPG, P29372, UniProt P29372, whole entry: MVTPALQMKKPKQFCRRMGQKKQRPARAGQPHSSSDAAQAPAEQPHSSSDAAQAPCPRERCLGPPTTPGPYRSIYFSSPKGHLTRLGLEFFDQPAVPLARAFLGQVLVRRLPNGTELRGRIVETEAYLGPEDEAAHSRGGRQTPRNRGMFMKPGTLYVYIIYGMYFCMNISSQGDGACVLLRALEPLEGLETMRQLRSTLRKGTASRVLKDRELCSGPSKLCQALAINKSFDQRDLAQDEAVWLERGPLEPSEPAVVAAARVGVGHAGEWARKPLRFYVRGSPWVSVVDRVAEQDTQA
# NFRKB, Q6P4R8, UniProt Q6P4R8, whole entry: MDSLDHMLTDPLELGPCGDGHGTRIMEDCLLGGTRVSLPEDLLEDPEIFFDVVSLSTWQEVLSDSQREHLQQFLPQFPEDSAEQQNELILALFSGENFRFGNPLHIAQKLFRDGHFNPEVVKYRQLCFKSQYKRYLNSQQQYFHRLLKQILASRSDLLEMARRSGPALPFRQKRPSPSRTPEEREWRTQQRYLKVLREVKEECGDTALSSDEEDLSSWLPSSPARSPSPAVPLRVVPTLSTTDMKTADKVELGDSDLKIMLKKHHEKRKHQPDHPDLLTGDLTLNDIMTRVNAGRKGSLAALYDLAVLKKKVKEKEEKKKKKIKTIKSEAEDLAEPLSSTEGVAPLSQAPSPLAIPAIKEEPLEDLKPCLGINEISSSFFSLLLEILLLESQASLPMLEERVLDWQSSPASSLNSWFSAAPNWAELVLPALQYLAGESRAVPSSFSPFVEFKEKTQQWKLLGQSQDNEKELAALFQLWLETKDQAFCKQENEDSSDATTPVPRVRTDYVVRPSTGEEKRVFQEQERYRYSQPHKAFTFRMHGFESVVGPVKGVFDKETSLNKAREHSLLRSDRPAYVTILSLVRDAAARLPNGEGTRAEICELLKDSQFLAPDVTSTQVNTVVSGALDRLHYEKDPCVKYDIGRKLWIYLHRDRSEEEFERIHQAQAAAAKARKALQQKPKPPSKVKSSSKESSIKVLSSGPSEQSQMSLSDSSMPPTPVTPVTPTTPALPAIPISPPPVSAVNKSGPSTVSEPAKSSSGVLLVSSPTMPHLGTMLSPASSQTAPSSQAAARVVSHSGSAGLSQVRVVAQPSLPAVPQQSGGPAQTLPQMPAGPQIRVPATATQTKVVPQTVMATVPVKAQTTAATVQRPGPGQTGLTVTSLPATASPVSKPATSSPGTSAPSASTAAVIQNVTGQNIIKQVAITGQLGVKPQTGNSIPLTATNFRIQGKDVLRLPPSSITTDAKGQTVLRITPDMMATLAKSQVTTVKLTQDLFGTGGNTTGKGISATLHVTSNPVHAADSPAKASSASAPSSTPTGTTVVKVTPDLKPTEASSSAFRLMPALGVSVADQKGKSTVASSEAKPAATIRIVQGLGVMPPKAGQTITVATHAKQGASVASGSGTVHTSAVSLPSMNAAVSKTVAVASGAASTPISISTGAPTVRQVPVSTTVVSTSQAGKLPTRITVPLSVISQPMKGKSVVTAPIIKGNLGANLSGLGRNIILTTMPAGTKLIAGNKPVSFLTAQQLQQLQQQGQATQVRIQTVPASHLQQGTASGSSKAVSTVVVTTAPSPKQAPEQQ
# YBX1, P67809, UniProt P67809, whole entry: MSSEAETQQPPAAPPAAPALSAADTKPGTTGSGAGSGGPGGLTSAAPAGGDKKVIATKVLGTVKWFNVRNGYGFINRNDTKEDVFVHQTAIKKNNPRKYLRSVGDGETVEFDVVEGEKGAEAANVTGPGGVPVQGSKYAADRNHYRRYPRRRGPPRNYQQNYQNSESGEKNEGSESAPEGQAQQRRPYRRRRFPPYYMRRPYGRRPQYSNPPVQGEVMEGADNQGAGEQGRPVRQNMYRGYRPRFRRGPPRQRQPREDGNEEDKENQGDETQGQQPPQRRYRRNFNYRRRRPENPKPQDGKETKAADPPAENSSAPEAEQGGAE
# YBX3, P16989, UniProt P16989, whole entry: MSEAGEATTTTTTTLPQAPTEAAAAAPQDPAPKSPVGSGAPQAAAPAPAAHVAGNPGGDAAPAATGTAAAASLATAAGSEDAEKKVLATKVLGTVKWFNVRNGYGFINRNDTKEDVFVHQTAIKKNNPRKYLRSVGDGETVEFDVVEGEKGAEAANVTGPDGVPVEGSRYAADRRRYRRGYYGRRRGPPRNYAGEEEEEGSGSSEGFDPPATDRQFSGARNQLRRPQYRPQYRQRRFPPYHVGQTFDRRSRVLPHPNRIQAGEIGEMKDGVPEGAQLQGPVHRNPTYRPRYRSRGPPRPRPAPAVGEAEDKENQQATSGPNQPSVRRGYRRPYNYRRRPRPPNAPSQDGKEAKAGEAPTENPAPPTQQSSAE
# ANAPC1, Q9H1A4, UniProt Q9H1A4, whole entry: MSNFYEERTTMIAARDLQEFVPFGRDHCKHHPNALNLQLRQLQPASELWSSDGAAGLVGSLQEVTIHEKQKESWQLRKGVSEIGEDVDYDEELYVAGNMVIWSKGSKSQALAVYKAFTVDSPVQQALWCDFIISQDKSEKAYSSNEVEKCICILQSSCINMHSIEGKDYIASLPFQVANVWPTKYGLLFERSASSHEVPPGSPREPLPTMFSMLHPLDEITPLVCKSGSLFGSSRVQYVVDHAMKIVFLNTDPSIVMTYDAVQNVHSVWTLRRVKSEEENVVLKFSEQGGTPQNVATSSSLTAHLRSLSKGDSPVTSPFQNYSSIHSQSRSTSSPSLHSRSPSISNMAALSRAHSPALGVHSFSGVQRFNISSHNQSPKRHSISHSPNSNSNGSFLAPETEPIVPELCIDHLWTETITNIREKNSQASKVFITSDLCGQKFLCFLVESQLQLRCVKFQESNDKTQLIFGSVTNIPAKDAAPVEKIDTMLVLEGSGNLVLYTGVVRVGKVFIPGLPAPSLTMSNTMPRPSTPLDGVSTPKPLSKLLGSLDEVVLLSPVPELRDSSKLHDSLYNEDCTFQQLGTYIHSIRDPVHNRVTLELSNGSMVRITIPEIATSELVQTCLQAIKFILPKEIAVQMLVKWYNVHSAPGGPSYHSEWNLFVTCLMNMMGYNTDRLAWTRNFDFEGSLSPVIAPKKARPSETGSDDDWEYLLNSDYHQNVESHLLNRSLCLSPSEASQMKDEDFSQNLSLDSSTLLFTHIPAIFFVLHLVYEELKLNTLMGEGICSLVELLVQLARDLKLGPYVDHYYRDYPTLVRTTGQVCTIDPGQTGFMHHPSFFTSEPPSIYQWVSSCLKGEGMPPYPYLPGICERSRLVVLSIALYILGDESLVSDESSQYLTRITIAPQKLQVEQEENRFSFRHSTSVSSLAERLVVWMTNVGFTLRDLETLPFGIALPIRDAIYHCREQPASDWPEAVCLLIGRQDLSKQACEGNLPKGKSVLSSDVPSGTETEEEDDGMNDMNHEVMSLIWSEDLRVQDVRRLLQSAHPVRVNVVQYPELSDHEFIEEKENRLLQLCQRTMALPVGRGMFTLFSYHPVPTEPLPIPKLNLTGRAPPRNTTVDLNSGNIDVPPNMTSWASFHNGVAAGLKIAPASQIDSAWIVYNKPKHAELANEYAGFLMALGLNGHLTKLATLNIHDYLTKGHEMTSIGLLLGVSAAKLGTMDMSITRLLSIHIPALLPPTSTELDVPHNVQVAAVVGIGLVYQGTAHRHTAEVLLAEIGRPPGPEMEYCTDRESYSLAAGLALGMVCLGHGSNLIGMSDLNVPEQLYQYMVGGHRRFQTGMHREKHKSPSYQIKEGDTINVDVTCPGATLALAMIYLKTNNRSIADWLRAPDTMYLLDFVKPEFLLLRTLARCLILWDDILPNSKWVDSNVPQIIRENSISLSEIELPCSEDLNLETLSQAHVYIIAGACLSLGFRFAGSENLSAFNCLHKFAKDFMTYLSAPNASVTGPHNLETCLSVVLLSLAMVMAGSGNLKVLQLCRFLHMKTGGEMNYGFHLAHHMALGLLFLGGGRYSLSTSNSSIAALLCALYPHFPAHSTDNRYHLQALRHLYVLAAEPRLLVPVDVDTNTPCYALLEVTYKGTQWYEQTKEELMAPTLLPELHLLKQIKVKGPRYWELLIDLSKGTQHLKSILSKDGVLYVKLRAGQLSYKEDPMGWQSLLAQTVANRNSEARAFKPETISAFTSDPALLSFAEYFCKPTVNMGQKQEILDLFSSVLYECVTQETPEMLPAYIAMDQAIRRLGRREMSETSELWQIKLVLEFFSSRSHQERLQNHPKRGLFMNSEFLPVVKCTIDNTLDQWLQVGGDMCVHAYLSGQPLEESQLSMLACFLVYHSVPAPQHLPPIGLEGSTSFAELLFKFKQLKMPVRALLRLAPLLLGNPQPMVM
# ± gives the standard deviation of the averaged measurements. The list shows a part of the results. Only hits are listed; about a third recur on repeated control peptides.
# Assays:
# Assay in all cases: PRISMA enrichment of interactor (LFQ) in peptide spot vs all other peptide spots (log2 fold change); higher = stronger / more specific binding of the interactor to the peptide
# ALYREF, Q86V81 = biological target: ALYREF, Q86V81
# Description: (§1)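 PRISMA: 221 full-length sORF-encoded peptides (3-15 aa), plus SOS1/GLUT1 control peptides, were spot-synthesized on cellulose membranes in triplicate. Membranes were incubated with HEK293T lysate, and bound proteins were identified by LC-MS/MS with LFQ. Enrichment is the log2 fold change versus all other peptide spots; only significant interactors are listed (cutoff c=6, x0=2.8).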
# BUD23, O43709 = biological target: BUD23, O43709
# Description: as §1
# C11orf98, E9PRG8 = biological target: C11orf98, E9PRG8
# Description: as §1
# C19orf53, Q9UNZ5 = biological target: C19orf53, Q9UNZ5
# Description: as §1
# CBX4, O00257 = biological target: CBX4, O00257
# Description: as §1
# CCDC137, Q6PK04 = biological target: CCDC137, Q6PK04
# Description: as §1
# CCDC59, Q9P031 = biological target: CCDC59, Q9P031
# Description: as §1
# CFAP20, Q9Y6A4 = biological target: CFAP20, Q9Y6A4
# Description: as §1
# CSNK1E, P49674 = biological target: CSNK1E, P49674
# Description: as §1
# DIMT1, Q9UNQ2 = biological target: DIMT1, Q9UNQ2
# Description: as §1
# DNAJA3, Q96EY1 = biological target: DNAJA3, Q96EY1
# Description: as §1
# DYNLL1, P63167 = biological target: DYNLL1, P63167
# Description: as §1
# EMG1, Q92979 = biological target: EMG1, Q92979
# Description: as §1
# FYTTD1, Q96QD9 = biological target: FYTTD1, Q96QD9
# Description: as §1
# LSM14B, Q9BX40 = biological target: LSM14B, Q9BX40
# Description: as §1
# MAP7, Q14244 = biological target: MAP7, Q14244
# Description: as §1
# MAP7D1, Q3KQU3 = biological target: MAP7D1, Q3KQU3
# Description: as §1
# MAZ, P56270 = biological target: MAZ, P56270
# Description: as §1
# MORF4L2, Q15014 = biological target: MORF4L2, Q15014
# Description: as §1
# MPG, P29372 = biological target: MPG, P29372
# Description: as §1
# NFRKB, Q6P4R8 = biological target: NFRKB, Q6P4R8
# Description: as §1
# NIFK, Q9BYG3 = biological target: NIFK, Q9BYG3
# Description: as §1
# NOL10, Q9BSC4 = biological target: NOL10, Q9BSC4
# Description: as §1
# NOL12, Q9UGY1 = biological target: NOL12, Q9UGY1
# Description: as §1
# NOP53, Q9NZM5 = biological target: NOP53, Q9NZM5
# Description: as §1
# NTHL1, P78549 = biological target: NTHL1, P78549
# Description: as §1
# NUDT16L1, Q9BRJ7 = biological target: NUDT16L1, Q9BRJ7
# Description: as §1
# NUSAP1, Q9BXS6 = biological target: NUSAP1, Q9BXS6
# Description: as §1
# NXF1, Q9UBU9 = biological target: NXF1, Q9UBU9
# Description: as §1
# POLDIP2, Q9Y2S7 = biological target: POLDIP2, Q9Y2S7
# Description: as §1
# PRR3, P79522 = biological target: PRR3, P79522
# Description: as §1
# PRRC2A, P48634 = biological target: PRRC2A, P48634
# Description: as §1
# PRRC2C, Q9Y520 = biological target: PRRC2C, Q9Y520
# Description: as §1
# PSRC1, Q6PGN9 = biological target: PSRC1, Q6PGN9
# Description: as §1
# PTRH1, Q86Y79 = biological target: PTRH1, Q86Y79
# Description: as §1
# RAB34 = biological target: RAB34
# Description: as §1
# RBMX, P38159 = biological target: RBMX, P38159
# Description: as §1
# RPUSD3, Q6P087 = biological target: RPUSD3, Q6P087
# Description: as §1
# SURF6, O75683 = biological target: SURF6, O75683
# Description: as §1
# UTP3, Q9NQZ2 = biological target: UTP3, Q9NQZ2
# Description: as §1
# WDR46, O15213 = biological target: WDR46, O15213
# Description: as §1
# YBX1, P67809 = biological target: YBX1, P67809
# Description: as §1
# YBX3, P16989 = biological target: YBX3, P16989
# Description: as §1
# ZNF22, P17026 = biological target: ZNF22, P17026
# Description: as §1
# ZNF512, Q96ME7 = biological target: ZNF512, Q96ME7
# Description: as §1
# ZNF593, O00488 = biological target: ZNF593, O00488
# Description: as §1
# ZNF622, Q969S3 = biological target: ZNF622, Q969S3
# Description: as §1
# ZNF768, Q9H5H4 = biological target: ZNF768, Q9H5H4
# Description: as §1
# ANAPC1, Q9H1A4 = biological target: ANAPC1, Q9H1A4
# Description: as §1
# LAMB3, Q13751 = biological target: LAMB3, Q13751
# Description: as §1
# MAP2K7, O14733 = biological target: MAP2K7, O14733
# Description: as §1
# PDCD6IP, Q8WUM4 = biological target: PDCD6IP, Q8WUM4
# Description: as §1
# PSMD4, P55036 = biological target: PSMD4, P55036
# Description: as §1
# UQCRFS1, P47985 = biological target: UQCRFS1, P47985
# Description: as §1
# WDR6, Q9NNW5 = biological target: WDR6, Q9NNW5
# Description: as §1
# ZC2HC1A, Q96GY0 = biological target: ZC2HC1A, Q96GY0
# Description: as §1
binder,measurement,setting,value
MGPSSGFLDVQLQA [AC093642.6],PRISMA enrichment of interactor (log2),"ALYREF, Q86V81",5.24 ± 1.1
same,PRISMA enrichment of interactor (log2),"BUD23, O43709",4.31
same,PRISMA enrichment of interactor (log2),"C11orf98, E9PRG8",5.16
same,PRISMA enrichment of interactor (log2),"C19orf53, Q9UNZ5",7.72
same,PRISMA enrichment of interactor (log2),"CBX4, O00257",4.73
same,PRISMA enrichment of interactor (log2),"CCDC137, Q6PK04",7.48
same,PRISMA enrichment of interactor (log2),"CCDC59, Q9P031",6.65
same,PRISMA enrichment of interactor (log2),"CFAP20, Q9Y6A4",4.84
same,PRISMA enrichment of interactor (log2),"CSNK1E, P49674",7.02
same,PRISMA enrichment of interactor (log2),"DIMT1, Q9UNQ2",5.87
same,PRISMA enrichment of interactor (log2),"DNAJA3, Q96EY1",6.05
same,PRISMA enrichment of interactor (log2),"DYNLL1, P63167",4.88
same,PRISMA enrichment of interactor (log2),"EMG1, Q92979",7.29
same,PRISMA enrichment of interactor (log2),"FYTTD1, Q96QD9",5.21
same,PRISMA enrichment of interactor (log2),"LSM14B, Q9BX40",4.54
same,PRISMA enrichment of interactor (log2),"MAP7, Q14244",5.23
same,PRISMA enrichment of interactor (log2),"MAP7D1, Q3KQU3",4.39
same,PRISMA enrichment of interactor (log2),"MAZ, P56270",5.85 ± 1.9
same,PRISMA enrichment of interactor (log2),"MORF4L2, Q15014",7.64
same,PRISMA enrichment of interactor (log2),"MPG, P29372",5.64
same,PRISMA enrichment of interactor (log2),"NFRKB, Q6P4R8",6.96
same,PRISMA enrichment of interactor (log2),"NIFK, Q9BYG3",5.88
same,PRISMA enrichment of interactor (log2),"NOL10, Q9BSC4",5.61
same,PRISMA enrichment of interactor (log2),"NOL12, Q9UGY1",6.84
same,PRISMA enrichment of interactor (log2),"NOP53, Q9NZM5",4.88
same,PRISMA enrichment of interactor (log2),"NTHL1, P78549",4.81
same,PRISMA enrichment of interactor (log2),"NUDT16L1, Q9BRJ7",4.96
same,PRISMA enrichment of interactor (log2),"NUSAP1, Q9BXS6",6.68
same,PRISMA enrichment of interactor (log2),"NXF1, Q9UBU9",8.59
same,PRISMA enrichment of interactor (log2),"POLDIP2, Q9Y2S7",6.55
same,PRISMA enrichment of interactor (log2),"PRR3, P79522",3.8
same,PRISMA enrichment of interactor (log2),"PRRC2A, P48634",5.31
same,PRISMA enrichment of interactor (log2),"PRRC2C, Q9Y520",4.81
same,PRISMA enrichment of interactor (log2),"PSRC1, Q6PGN9",6.86
same,PRISMA enrichment of interactor (log2),"PTRH1, Q86Y79",3.7
same,PRISMA enrichment of interactor (log2),RAB34,4.62
same,PRISMA enrichment of interactor (log2),"RBMX, P38159",5.2
same,PRISMA enrichment of interactor (log2),"RPUSD3, Q6P087",5.13
same,PRISMA enrichment of interactor (log2),"SURF6, O75683",4.73
same,PRISMA enrichment of interactor (log2),"UTP3, Q9NQZ2",4.45
same,PRISMA enrichment of interactor (log2),"WDR46, O15213",4.12
same,PRISMA enrichment of interactor (log2),"YBX1, P67809",4.92
same,PRISMA enrichment of interactor (log2),"YBX3, P16989",5.78
same,PRISMA enrichment of interactor (log2),"ZNF22, P17026",5.25
same,PRISMA enrichment of interactor (log2),"ZNF512, Q96ME7",5.65
same,PRISMA enrichment of interactor (log2),"ZNF593, O00488",4.75
same,PRISMA enrichment of interactor (log2),"ZNF622, Q969S3",6.11
same,PRISMA enrichment of interactor (log2),"ZNF768, Q9H5H4",6.43
MRDSTIIERMENY [BTN3A3],PRISMA enrichment of interactor (log2),"ANAPC1, Q9H1A4",6.57
same,PRISMA enrichment of interactor (log2),"LAMB3, Q13751",6.65
same,PRISMA enrichment of interactor (log2),"MAP2K7, O14733",8.49
same,PRISMA enrichment of interactor (log2),"PDCD6IP, Q8WUM4",7.45
same,PRISMA enrichment of interactor (log2),"PSMD4, P55036",7.09
same,PRISMA enrichment of interactor (log2),"UQCRFS1, P47985",5.53
same,PRISMA enrichment of interactor (log2),"WDR6, Q9NNW5",6.06
same,PRISMA enrichment of interactor (log2),"ZC2HC1A, Q96GY0",5.8

# Part of the list above, tab-delimited.
binder	measurement	setting	value
MGPSSGFLDVQLQA [AC093642.6]	PRISMA enrichment of interactor (log2)	WDR46, O15213	4.12
same	PRISMA enrichment of interactor (log2)	YBX1, P67809	4.92
same	PRISMA enrichment of interactor (log2)	YBX3, P16989	5.78
